{"sequences": {"note": "Sequences of proteins named here, by UniProt entry; tags and fusion partners are left off. Residues count along the entry.", "UniProt A0A024B7W1, 2786-3423": "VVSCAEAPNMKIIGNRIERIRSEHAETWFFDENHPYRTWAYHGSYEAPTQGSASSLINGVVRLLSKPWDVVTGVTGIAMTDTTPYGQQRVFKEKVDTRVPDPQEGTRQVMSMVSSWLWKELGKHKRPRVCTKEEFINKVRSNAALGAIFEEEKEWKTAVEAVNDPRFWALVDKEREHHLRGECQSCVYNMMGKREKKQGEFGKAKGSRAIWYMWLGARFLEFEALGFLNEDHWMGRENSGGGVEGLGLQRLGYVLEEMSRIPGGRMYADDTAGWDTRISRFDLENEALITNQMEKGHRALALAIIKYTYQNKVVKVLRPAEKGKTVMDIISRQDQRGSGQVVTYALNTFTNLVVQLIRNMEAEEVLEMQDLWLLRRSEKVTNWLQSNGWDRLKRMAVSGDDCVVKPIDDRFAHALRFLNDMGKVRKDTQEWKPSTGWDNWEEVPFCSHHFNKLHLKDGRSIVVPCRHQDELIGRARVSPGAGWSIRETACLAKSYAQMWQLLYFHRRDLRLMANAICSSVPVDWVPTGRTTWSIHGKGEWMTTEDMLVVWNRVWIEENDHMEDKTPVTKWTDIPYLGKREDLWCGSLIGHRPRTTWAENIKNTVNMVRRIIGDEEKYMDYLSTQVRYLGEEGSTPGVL"}, "source": "paper PMC9915956", "about": "“Identification of Potent Zika Virus NS5 RNA-Dependent RNA Polymerase Inhibitors Combining Virtual Screening and Biological Assays” (International Journal of Molecular Sciences, 2023)", "molecular_target": "ZIKV NS5 RdRp (Zika virus, UniProt A0A024B7W1)", "assay": "Fluorescence-based alkaline phosphatase-coupled polymerase assay, RdRp enzymatic inhibition", "format": "biochemical", "conditions": "compounds incubated with RdRp for 30 min; WT-RdRp; read-out: IC50 to inhibit RdRp activity", "experimental": "The activity of RdRp was measured by a fluorescence-based alkaline phosphatase-coupled polymerase assay established previously in our lab. Briefly, RdRp catalyzed the transfer of adenosine 5′-monophosphate from γ-(BBT)-ATP to the RNA chain, generating the byproduct BBTppi. Subsequently, BBTppi was hydrolyzed by alkaline phosphatase to fluorescent BBT (ex/em 430/560 nm).\nThe plasmid pET30a-RdRp, constructed in our laboratory, was transformed into E. coli Transetta (DE3) for RdRp expression and purified. The bacteria were grown in ZYM-5052 culture medium. RdRp with the His tag was loaded on a Ni^2+ HisTrap chelating column and then eluted in a buffer containing imidazole in the ÄKTA system. The purified proteins were verified by SDS-PAGE and Western blotting. RdRp activity was analyzed using a fluorescence-based alkaline phosphatase-coupled polymerase assay. The inhibitory effect of the compounds against RdRp was evaluated using the protocol developed in our laboratory.", "note": "pIC50: −log10 of the molar value.", "data": [{"smiles": "Clc1ccc(CS[C@@H](Cn2ccnc2)c2ccc(Cl)cc2Cl)cc1", "note": "[SUL, Sulconazole (nitrate)]", "values": [{"measurement": "pIC50", "result": 4.81}]}]}
